PubChem BioAssay AID1159578 – Peter MacCallum Cancer Centre | 2015

Test: 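Knock-downs that alter how fast lymphatic endothelial cells migrate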 (primary screen)
Cells: human lymphatic endothelial cells
Reagent: siRNA pool against human genes, 40 nM
Duration: 48 h after transfection
Measurement: 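Cells stained with dye and imaged after a scratch; covered wound area and nuclei counted, duplicates averaged, migration set against mock wells and turned into a robust z-score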
Reading the numbers: migration robust z-score: higher = faster migration into the scratch; nuclei per well: higher = more cells in the well
Active means: 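Pools averaging fewer than 3300 nuclei are never called; remaining pools count as changed when migration robust z lies outside -2 to 2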
Calls: active = migration changed; inactive = no migration change, or too few cells
Here is an unselected part of about 18,000 deposited reagents. In the full data, about 1,030 (5.7%) got an active call. 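Inactive calls also include pools with fewer than 3300 nuclei, whose migration was not assessed.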 Raw values vary from plate to plate and are shown uncorrected. A number with no mark means an inactive call. Further read-outs or replicates are left out here. No sequences are given here.

Knock-down of TSGA10IP (testis specific 10 interacting protein) gave: migration robust z-score -0.75; nuclei per well, duplicate mean 7210.
With knock-down of ITPK1 (inositol-tetrakisphosphate 1-kinase) the results were migration robust z-score -1.33; nuclei per well, duplicate mean 5215.
After knock-down of SLC25A23, the screen gave migration robust z-score -0.57; nuclei per well, duplicate mean 5846.
Against DPYSL4 (dihydropyrimidinase like 4), the entry reads migration robust z-score -1.01; nuclei per well, duplicate mean 6632.
Against KLRG1 (killer cell lectin like receptor G1) the deposit lists migration robust z-score -0.6; nuclei per well, duplicate mean 5524.
With knock-down of ALDH1L2 (aldehyde dehydrogenase 1 family member L2) the results were migration robust z-score -3.68; nuclei per well, duplicate mean 3004.
Depletion of KDM7A (lysine demethylase 7A) came out at: migration robust z-score -0.24; nuclei per well, duplicate mean 6650.
For MUC15 (mucin 15, cell surface associated), the entry reads migration robust z-score 2.17 (active); nuclei per well, duplicate mean 5734.
Depletion of PTPN3 (protein tyrosine phosphatase non-receptor type 3) resulted in: migration robust z-score -1.14; nuclei per well, duplicate mean 6481.

2 successive records already listed:
MUC15 (mucin 15, cell surface associated) → migration robust z-score: 2.17 (active); nuclei per well, duplicate mean: 5734
PTPN3 (protein tyrosine phosphatase non-receptor type 3) → migration robust z-score: -1.14; nuclei per well, duplicate mean: 6481

Next entries follow.
For OTUD6B (OTU deubiquitinase 6B), the values are migration robust z-score 0.03; nuclei per well, duplicate mean 6443.
With knock-down of MGAT2 the results were migration robust z-score 0.56; nuclei per well, duplicate mean 6168.
Silencing of P4HA2 (prolyl 4-hydroxylase subunit alpha 2) resulted in: migration robust z-score 0.52; nuclei per well, duplicate mean 5054.
ANKDD1A (ankyrin repeat and death domain containing 1A) gave migration robust z-score 0.63; nuclei per well, duplicate mean 5288.
Knock-down of ACOX2 (acyl-CoA oxidase 2) came out at: migration robust z-score 0.2; nuclei per well, duplicate mean 4644.
